Taken from: PubChem BioAssay AID1259405 (NCATS, 2018)
Purpose: 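Knock-downs that lift recombinant protein yield in hamster ovary cells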 (primary screen). Cell system: Chinese hamster CHO-K1 ovary cells with stable secreted eGFP expression. Knock-down reagent: single siRNA against mouse genes, 0.8 pmol siRNA per well (2 µl of 400 nM stock). Timing: 3 days. Measured: 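Per-well intracellular GFP measured by laser scanning cytometry, plus viability from ATP luminescence, each relative to plate median of non-targeting control wells, in %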. Reading the numbers: GFP, % of control: higher = more GFP per well, higher productivity; viability (ATP), % of control: higher = more viable cells (more ATP). Active means: 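a knock-down is called active if GFP reaches 120% or more of non-targeting control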.
In all, the deposit lists about 50,000 reagents; this is an unselected part. About 4,000 of them (8%) count as active. 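Mouse siRNA library applied to hamster cells; one well for each siRNA.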 The numbers tell different reagents against one gene apart.

no.	gene knocked down	reagent	GFP, % of control	viability (ATP), % of control	call
1	Ermard (ER membrane associated RNA degradation)	1	72.3	92.7	inactive
2	Ermard (ER membrane associated RNA degradation)	2	50.6	52	inactive
3	Ermard (ER membrane associated RNA degradation)	3	115	70.8	inactive
4	Ermard (ER membrane associated RNA degradation)	4	158	121	active
5	Ermard (ER membrane associated RNA degradation)	5	82.9	73.5	inactive
6	Ermard (ER membrane associated RNA degradation)	6	89.6	70.9	inactive
7	Wdr45 (WD repeat domain 45)	1	48.5	42.7	inactive
8	Wdr45 (WD repeat domain 45)	2	97.4	89.6	inactive
9	Wdr45 (WD repeat domain 45)	3	75.9	83.7	inactive
10	Ralgapa1 (Ral GTPase activating protein, alpha subunit 1)	1	75.9	51.6	inactive
11	Ralgapa1 (Ral GTPase activating protein, alpha subunit 1)	2	112	85.9	inactive
12	Ralgapa1 (Ral GTPase activating protein, alpha subunit 1)	3	32.9	34.9	inactive
13	Mrps23 (mitochondrial ribosomal protein S23)	1	64	95.6	inactive
14	Mrps23 (mitochondrial ribosomal protein S23)	2	37.8	96.8	inactive
15	Mrps23 (mitochondrial ribosomal protein S23)	3	95.8	50.7	inactive
16	Or8b49 (olfactory receptor family 8 subfamily B member 49)	1	106	104	inactive
17	Or8b49 (olfactory receptor family 8 subfamily B member 49)	2	126	88.7	active
18	Or8b49 (olfactory receptor family 8 subfamily B member 49)	3	85.4	66.8	inactive
19	Map1lc3a (microtubule-associated protein 1 light chain 3 alpha)	1	67.4	75.3	inactive
20	Map1lc3a (microtubule-associated protein 1 light chain 3 alpha)	2	70.9	62.5	inactive
21	Map1lc3a (microtubule-associated protein 1 light chain 3 alpha)	3	139	71.5	active
22	Vmn1r83 (vomeronasal 1 receptor 83)	1	132	85.9	active
23	Vmn1r83 (vomeronasal 1 receptor 83)	2	60.9	47.8	inactive
24	Vmn1r83 (vomeronasal 1 receptor 83)	3	76.1	71.1	inactive
25	Jpt1 (Jupiter microtubule associated homolog 1)	1	108	115	inactive
26	Jpt1 (Jupiter microtubule associated homolog 1)	2	88.8	71	inactive
27	Jpt1 (Jupiter microtubule associated homolog 1)	3	87.7	77.1	inactive
28	Cyb5r1 (cytochrome b5 reductase 1)	1	50.9	66.7	inactive
29	Cyb5r1 (cytochrome b5 reductase 1)	2	117	118	inactive
30	Cyb5r1 (cytochrome b5 reductase 1)	3	72.2	72.3	inactive
31	Vmn1r220 (vomeronasal 1 receptor 220)	1	46.5	52.1	inactive
32	Vmn1r220 (vomeronasal 1 receptor 220)	2	69.2	78.8	inactive
33	Vmn1r220 (vomeronasal 1 receptor 220)	3	60.8	75.3	inactive
34	Igsf3 (immunoglobulin superfamily, member 3)	1	97.7	85.2	inactive
35	Igsf3 (immunoglobulin superfamily, member 3)	2	52.7	58.2	inactive
36	Igsf3 (immunoglobulin superfamily, member 3)	3	89	92.6	inactive
37	Fuca2 (fucosidase, alpha-L- 2, plasma)	1	79.1	65.1	inactive
38	Fuca2 (fucosidase, alpha-L- 2, plasma)	2	112	113	inactive
39	Fuca2 (fucosidase, alpha-L- 2, plasma)	3	64	66.8	inactive
40	Abcc8 (ATP-binding cassette, sub-family C member 8)	1	64.7	48.7	inactive
41	Abcc8 (ATP-binding cassette, sub-family C member 8)	2	99.4	78.6	inactive
42	Abcc8 (ATP-binding cassette, sub-family C member 8)	3	97.1	60.3	inactive
43	Vps4b (vacuolar protein sorting 4B)	1	35.3	53.8	inactive
44	Vps4b (vacuolar protein sorting 4B)	2	102	64.9	inactive
45	Vps4b (vacuolar protein sorting 4B)	3	83.9	81.8	inactive
46	Gimap8 (GTPase, IMAP family member 8)	1	96.1	92.5	inactive
47	Gimap8 (GTPase, IMAP family member 8)	2	66.8	69.2	inactive
48	Gimap8 (GTPase, IMAP family member 8)	3	61.7	55.5	inactive
49	Pirt	1	49.9	41.2	inactive
50	Pirt	2	73.2	73.6	inactive
51	Pirt	3	30.5	63.5	inactive
52	Cdca2 (cell division cycle associated 2)	1	61.5	78.6	inactive
53	Cdca2 (cell division cycle associated 2)	2	102	88.9	inactive
54	Cdca2 (cell division cycle associated 2)	3	82.7	82.5	inactive
55	Dlec1 (deleted in lung and esophageal cancer 1)	1	64.4	55.6	inactive
56	Dlec1 (deleted in lung and esophageal cancer 1)	2	102	68.5	inactive
57	Dlec1 (deleted in lung and esophageal cancer 1)	3	76.3	73.4	inactive
58	Gfra4	1	168	90.2	active
59	Gfra4	2	82.9	61.5	inactive
60	B4gat1 (beta-1,4-glucuronyltransferase 1)	1	135	104	active
61	B4gat1 (beta-1,4-glucuronyltransferase 1)	2	25.8	65.8	inactive
62	B4gat1 (beta-1,4-glucuronyltransferase 1)	3	120	109	inactive
63	Nedd8	1	65.2	82.7	inactive
64	Nedd8	2	95.6	43.6	inactive
65	Nedd8	3	123	81.3	active
66	Zfp523 (zinc finger protein 523)	1	82.5	83.8	inactive
67	Zfp523 (zinc finger protein 523)	2	67.4	53.1	inactive
68	2810408A11Rik (RIKEN cDNA 2810408A11 gene)	1	41.9	47.6	inactive
69	2810408A11Rik (RIKEN cDNA 2810408A11 gene)	2	99.7	80.9	inactive
70	2810408A11Rik (RIKEN cDNA 2810408A11 gene)	3	80.6	115	inactive
71	Ldaf1 (lipid droplet assembly factor 1)	1	96.3	65.1	inactive
72	Ldaf1 (lipid droplet assembly factor 1)	2	91.3	93.4	inactive
73	Ldaf1 (lipid droplet assembly factor 1)	3	138	136	active
74	Fbxo4 (F-box protein 4)	1	66.4	84.1	inactive
75	Fbxo4 (F-box protein 4)	2	37.7	31.2	inactive
76	Fbxo4 (F-box protein 4)	3	157	39.3	active
77	Atp10b (ATPase, class V, type 10B)	1	93	68.7	inactive
78	Atp10b (ATPase, class V, type 10B)	2	83.7	101	inactive
79	Atp10b (ATPase, class V, type 10B)	3	59.5	49.3	inactive
80	Pcdh7 (protocadherin 7)	1	107	74	inactive
81	Pcdh7 (protocadherin 7)	2	38.7	64.5	inactive
82	Pcdh7 (protocadherin 7)	3	76	74	inactive
83	Pcyt1b (phosphate cytidylyltransferase 1, choline, beta isoform)	1	114	110	inactive
84	Pcyt1b (phosphate cytidylyltransferase 1, choline, beta isoform)	2	106	74.5	inactive
85	Pcyt1b (phosphate cytidylyltransferase 1, choline, beta isoform)	3	74.8	91.1	inactive

Laid out differently: 12 of the entries above.
Wdr45 (WD repeat domain 45) #3: GFP, % of control = 75.9; viability (ATP), % of control = 83.7; call = inactive
Ralgapa1 (Ral GTPase activating protein, alpha subunit 1) #1: GFP, % of control = 75.9; viability (ATP), % of control = 51.6; call = inactive
Ralgapa1 (Ral GTPase activating protein, alpha subunit 1) #2: GFP, % of control = 112; viability (ATP), % of control = 85.9; call = inactive
Ralgapa1 (Ral GTPase activating protein, alpha subunit 1) #3: GFP, % of control = 32.9; viability (ATP), % of control = 34.9; call = inactive
Mrps23 (mitochondrial ribosomal protein S23) #1: GFP, % of control = 64; viability (ATP), % of control = 95.6; call = inactive
Mrps23 (mitochondrial ribosomal protein S23) #2: GFP, % of control = 37.8; viability (ATP), % of control = 96.8; call = inactive
Mrps23 (mitochondrial ribosomal protein S23) #3: GFP, % of control = 95.8; viability (ATP), % of control = 50.7; call = inactive
Or8b49 (olfactory receptor family 8 subfamily B member 49) #1: GFP, % of control = 106; viability (ATP), % of control = 104; call = inactive
Or8b49 (olfactory receptor family 8 subfamily B member 49) #2: GFP, % of control = 126; viability (ATP), % of control = 88.7; call = active
Or8b49 (olfactory receptor family 8 subfamily B member 49) #3: GFP, % of control = 85.4; viability (ATP), % of control = 66.8; call = inactive
Map1lc3a (microtubule-associated protein 1 light chain 3 alpha) #1: GFP, % of control = 67.4; viability (ATP), % of control = 75.3; call = inactive
Map1lc3a (microtubule-associated protein 1 light chain 3 alpha) #2: GFP, % of control = 70.9; viability (ATP), % of control = 62.5; call = inactive
